Measurements reported in US20230073214A1, “BIOACTIVE RELEASING MEMBRANE FOR ANALYTE SENSOR” (DexCom, Inc., priority 2021, published 2023).
For at least one compound, name, drawing or mass did not settle the structure.

How the values were obtained:
[1] = additional release experiments with dexamethasone salts in different bioactive releasing membrane combinations; format: physicochemical
[2] = in vitro bioactive release profile of dexamethasone acetate from bioactive releasing membrane 70 (percent cumulative release by HPLC); format: physicochemical
Experimental: With reference to FIG. 5A, an exemplary in vitro bioactive release profiles for dexamethasone acetate is shown using exemplary bioactive releasing membrane 70. The percent cumulative release of dexamethasone acetate can be determined using HPLC, for example using a Phenomenex Kinetex 5μ EVO C18 100 Å, 50×3.0 mm column held at 25° C. with a 254 nm UV detector and an elution gradient of A: Water with 0.1% formic acid/B: Acetonitrile with 0.1% formic acid (vol/vol), where the gradient from time 0 to 2 minutes is 90% A/10% B; from 2-5 minutes is 10% A/90% B; and from 5 minutes is 90% A/10% B. Dexamethasone acetate and dexamethasone HPLC standards are prepared at concentrations of about 0.1-20 ug/mL.
With reference to FIG. 5B, experimental data of a release rate of a bioactive agent (dexamethasone acetate) from a bioactive releasing membrane 70 initially or during the first time period being greater than the release rate of the bioactive agent from the bioactive releasing membrane initially or during the second time period and the release rate of the bioactive agent from the bioactive releasing membrane initially or during the second time period is greater than the release rate of the bioactive agent from the bioactive releasing membrane initially or during the third time period is shown. […]

CC(=O)OCC(=O)[C@@]1(O)[C@H](C)C[C@H]2[C@@H]3CCC4=CC(=O)C=C[C@]4(C)[C@@]3(F)[C@@H](O)C[C@@]21C [dexamethasone acetate]
duration of slow, sustained (continuous or semicontinuous) release ([1]; in a cellulose polymer): more than 15 days
duration of sustained release ([1]; in a hard-soft segmented polyurethane urea copolymer with approximately equal weight percentages hydrophobic/hydrophilic segments): approximately 15 days
duration of slow, sustained release ([1]; in a hard-soft segmented polyurethane urea copolymer with weight percent of hydrophobic soft segment greater than hydrophilic soft segment): more than 15 days
duration of sustained release ([1]; in a hard-soft segmented polyurethane urea copolymer with zero weight percent of hydrophobic soft segment): about 5 days
second release rate: release, share of the initial loading ([2]; over a time span of about 13 days (FIG. 5B)): approximately 40%
first release rate: bolus release, share of the initial loading ([2]; over approximately a two day period (FIG. 5B)): approximately 50%
